Laboratory results published in PubChem BioAssay.
The shares of active, inactive and inconclusive entries below differ from those in the screen. For some assays here: Potencies of inconclusive entries are doubtful fits and often do not repeat. Active and inactive are the calls of the source. Unless noted, the limit is not given here; nearly all actives have AC50 up to about 26 µM.

Protein sequences, listed by entry. Tags and fused reporters are not part of them.
UniProt P08183, whole entry, looked up: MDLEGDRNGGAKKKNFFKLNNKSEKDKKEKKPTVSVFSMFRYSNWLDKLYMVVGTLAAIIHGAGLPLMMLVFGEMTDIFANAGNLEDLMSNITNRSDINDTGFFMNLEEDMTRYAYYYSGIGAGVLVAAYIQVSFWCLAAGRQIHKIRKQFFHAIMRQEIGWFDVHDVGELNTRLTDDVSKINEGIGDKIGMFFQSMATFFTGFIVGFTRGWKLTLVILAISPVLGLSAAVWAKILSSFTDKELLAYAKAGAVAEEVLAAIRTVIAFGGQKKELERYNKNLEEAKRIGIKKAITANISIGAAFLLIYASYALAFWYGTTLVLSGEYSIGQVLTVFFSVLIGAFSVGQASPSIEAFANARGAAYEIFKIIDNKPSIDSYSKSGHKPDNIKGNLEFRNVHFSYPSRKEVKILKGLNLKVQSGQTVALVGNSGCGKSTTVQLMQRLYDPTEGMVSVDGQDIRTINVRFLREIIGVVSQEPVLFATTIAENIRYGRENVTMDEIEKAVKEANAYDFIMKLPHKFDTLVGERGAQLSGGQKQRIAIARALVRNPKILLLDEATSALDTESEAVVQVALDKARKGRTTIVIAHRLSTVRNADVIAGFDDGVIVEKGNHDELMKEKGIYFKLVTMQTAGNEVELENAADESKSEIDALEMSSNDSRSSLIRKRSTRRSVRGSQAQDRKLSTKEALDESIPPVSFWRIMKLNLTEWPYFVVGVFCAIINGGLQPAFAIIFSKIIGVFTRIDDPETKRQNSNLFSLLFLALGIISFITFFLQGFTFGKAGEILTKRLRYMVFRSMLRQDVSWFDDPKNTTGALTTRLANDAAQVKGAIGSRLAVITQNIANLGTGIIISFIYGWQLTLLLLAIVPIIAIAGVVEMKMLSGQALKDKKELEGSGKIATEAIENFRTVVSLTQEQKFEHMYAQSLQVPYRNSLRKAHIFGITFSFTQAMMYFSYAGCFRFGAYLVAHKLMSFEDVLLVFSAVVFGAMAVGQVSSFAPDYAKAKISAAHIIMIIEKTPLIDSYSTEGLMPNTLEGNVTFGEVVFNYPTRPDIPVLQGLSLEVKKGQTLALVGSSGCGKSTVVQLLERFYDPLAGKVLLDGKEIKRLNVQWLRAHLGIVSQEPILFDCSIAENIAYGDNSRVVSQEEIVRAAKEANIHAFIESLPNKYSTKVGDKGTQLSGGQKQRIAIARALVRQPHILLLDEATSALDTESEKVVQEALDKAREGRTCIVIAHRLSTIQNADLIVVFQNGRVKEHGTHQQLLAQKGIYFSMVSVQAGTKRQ

Key:
[1] = growth inhibition of DIPG glioma cells, dose response, cell-based, JHH-DIPG-1, MIPE4.0, CellTiter-Glo, qHTS (AID 1347062; cut-off not given, nearly all actives have AC50 up to about 27 µM;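 as to AC50: cells exposed to compound for two days before readout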); conditions: JHH-DIPG-1 viability, CellTiter-Glo ATP luminescence
[2] = growth inhibition of DIPG glioma cells, dose response, cell-based, SU-DIPG-IV, MIPE4.0, CellTiter-Glo, qHTS (AID 1347063; cut-off not given, nearly all actives have AC50 up to about 30 µM;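 also: compound exposure lasted 48 hours before the viability readout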); conditions: SU-DIPG-IV viability, CellTiter-Glo ATP luminescence
[3] = growth inhibition of DIPG glioma cells, dose response, cell-based, SU-DIPG-XIII, MIPE5.0, CellTiter-Glo, qHTS (AID 1347064; cut-off not given, nearly all actives have AC50 up to about 23 µM;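 as to AC50: cells exposed to compound for 48 hours before the viability read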); conditions: SU-DIPG-XIII viability, CellTiter-Glo ATP luminescence
[4] = viability loss in pontine glioma line – cell-based, SU-DIPG-XXV, MIPE5.0, CellTiter-Glo, qHTS, dose response (AID 1347065); conditions: CellTiter-Glo ATP luminescence;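 also: cells exposed to compound for 48 hours before ATP readout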
[5] = JHH-DIPG-1 glioma cell viability, MIPE5.0 library, CellTiter-Glo luminescence, qHTS (AID 1347067); conditions: JHH-DIPG-1 glioma viability, CellTiter-Glo ATP luminescence;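 also: cells exposed to compound for 48 hours before readout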
[6] = inhibitors of polyQ aggregate elongation, biochemical, solid-phase synthetic aggregates, QA3 (AID 1585; call rule not given here); conditions: biotin-polyQ incorporation, at 100 µM, active compounds read high
[7] = polyglutamine aggregation reduction, turbidity readout, qthio, single concentration 25 µM screen (AID 1588; call rule not given here); conditions: at 25 µM, active compounds read low
[8] = protection of motor neurons from glutamate death, cell-based, TUNEL DNA degradation staining, MNGlu (AID 1594; call rule not given here); conditions: glutamate-induced death, at 1 µM, active compounds read high
[9] = enhancers of SMN2 over SMN1 splicing, cell-based, SMN2/SMN1 luciferase reporters (AID 1598; call rule not given here); conditions: SMN2 vs SMN1 luciferase splicing reporter cells; at 10 µM; active compounds read high
[10] = growth inhibition of DIPG glioma cells, dose response, cell-based, SU-DIPG-XIII, MIPE4.0, CellTiter-Glo, qHTS (AID 1347061; cut-off not given, nearly all actives have AC50 up to about 37 µM;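 also: cells exposed to compound for 48 hours before readout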); conditions: SU-DIPG-XIII viability, CellTiter-Glo ATP luminescence
[11] = SU-DIPG-XXV glioma cell viability, MIPE5.0 library, qHTS (AID 1347068; cut-off not given, nearly all actives have IC50 up to about 30 µM;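 as to IC50: cells exposed to compound for 48 hours before viability readout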)
[12] = SU-DIPG-VI glioma cell viability, MIPE4.0 library, CellTiter-Glo luminescence, qHTS (AID 1347066; cut-off not given, nearly all actives have AC50 up to about 30 µM;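 also: cells exposed to compound for 48 hours before readout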); conditions: CellTiter-Glo ATP luminescence
[13] = molecular target: ATP-dependent translocase ABCB1 (Homo sapiens) (UniProt P08183); test: MDR1 (ABCB1) efflux transporter inhibition, cell-based (AID 377; in the data active = fluorescence slope change above about 50%; inconclusive = mostly about 31% to 49%); conditions: MDR1-expressing cells, fluorescent substrate accumulation slope; active compounds read high; concentration not given here
[14] = mitochondrial permeability transition inhibitors (AID 1580; call rule not given here); conditions: isolated mitochondria, permeability transition inhibition; active call at 10 uM (0/1): at 10 µM, active compounds read high

COc1cccc2c1[C@]13CCN(CC4CC4)[C@H](C2)[C@]1(OC)CCC(=O)C3
outcome [1]: inactive
AC50 [2]: inconclusive: 0.59 µM

CC(C)[C@H]1C(=O)N[C@H](CO)Cc2c[nH]c3cccc(c23)N1C
AC50 [1]: inconclusive: 0.59 µM
AC50 [2]: inconclusive: 0.0469 µM [cytotoxic]
AC50 [3]: inconclusive: 2.04 µM [cytotoxic]
AC50 [4]: inconclusive: 0.0723 µM [cytotoxic]
AC50 [5]: inconclusive: 2.29 µM

CCOC(=O)c1cncn1[C@H](C)c1ccccc1
AC50 [1]: inconclusive: 0.00372 µM [cytotoxic]

COc1cc2c(cc1F)C(c1ccccc1Cl)=Nc1c(n[nH]c1C)N2
AC50 [3]: inconclusive: 10.5 µM [cytotoxic]
AC50 [4]: active: 13.2 µM
AC50 [5]: active: 14.8 µM

C[C@]12COC(=O)C[C@@H]1CC[C@@H]1[C@@H]2CC[C@@]2(C)[C@H]1CC[C@]2(C)O
outcome [2]: inactive
outcome [3]: inactive
AC50 [4]: inconclusive: 0.00105 µM [cytotoxic]

NC(=O)[C@@H](CC1CC1)[C@@H](CCC(F)(F)F)C(=O)N[C@H]1N=C(c2ccccc2)c2cccc(F)c2NC1=O
outcome [3]: inactive
outcome [4]: inactive
AC50 [5]: inconclusive: 0.00742 µM [cytotoxic]

C#CC1(O)CCC2C3CCC4=CC(=O)CCC4(C)C3CCC21C (stereo unspecified)
inhibition [6]: inconclusive: 7.53%
aggregation (% of control) [7]: inconclusive: 103%
protection [8]: inconclusive: 18%
SMN2/SMN1 luciferase ratio [9]: inconclusive: 0.97
AC50 [10]: inconclusive: 26.4 µM [cytotoxic]
AC50 [2]: inconclusive: 1.66 µM [cytotoxic]
outcome [4]: inactive
AC50 [5]: inconclusive: 8.33 µM [cytotoxic]
IC50 [11]: inconclusive: 33.2 µM

COc1cc2cc(c1Cl)N(C)C(=O)C[C@H](OC(=O)C(C)C)[C@]1(C)O[C@@H]1[C@H](C)[C@@H]1C[C@@](O)(NC(=O)O1)[C@H](OC)/C=C/C=C(\C)C2
outcome [1]: inactive
outcome [2]: inactive
AC50 [5]: active: 0.00742 µM
IC50 [11]: inconclusive: 0.0295 µM [cytotoxic]

C[N+](C)(C)CC(=O)O
outcome [1]: inactive

O=C(CBr)N1CC([N+](=O)[O-])([N+](=O)[O-])C1
AC50 [3]: inconclusive: 0.171 µM [cytotoxic]
outcome [4]: inactive
AC50 [5]: inconclusive: 85.5 µM [cytotoxic]

CC(=O)O[C@@]12CO[C@@H]1C[C@H](O)[C@@]1(C)C(=O)[C@H](O)C3=C(C)[C@@H](O)C[C@@](O)([C@@H](OC(=O)c4ccccc4)[C@H]21)C3(C)C
AC50 [1]: inconclusive: 1.32 µM [cytotoxic]
AC50 [2]: inconclusive: 0.662 µM [cytotoxic]
AC50 [3]: inconclusive: 6.61 µM [cytotoxic]
AC50 [4]: inconclusive: 33.2 µM [cytotoxic]
outcome [5]: inactive

CC1=C2C[C@H]3[C@@H](CC=C4C[C@@H](O)CC[C@@]43C)[C@@H]2CC[C@]12O[C@@H]1C[C@H](C)CN[C@H]1[C@H]2C
AC50 [10]: inconclusive: 20.9 µM [cytotoxic]
outcome [3]: inactive
outcome [12]: inactive
outcome [5]: inactive
outcome [11]: inactive

N=c1c2c(-c3ccccc3)c(-c3ccccc3)n(Cc3ccccc3)c2ncn1C1CCC(O)CC1 (stereo unspecified)
AC50 [1]: inconclusive: 29.6 µM [cytotoxic]
AC50 [3]: active: 16.6 µM
AC50 [12]: inconclusive: 14.8 µM [cytotoxic]
AC50 [5]: inconclusive: 33.2 µM [cytotoxic]
IC50 [11]: active: 18.6 µM

C[C@]12CCC(=O)C=C1CC[C@@H]1[C@@H]2CC[C@@]2(C)[C@H]1CC[C@]2(C)O
AC50 [2]: inconclusive: 30.3 µM [cytotoxic]
outcome [12]: inactive

O=c1[nH]c2ccc(Cl)cc2c(N[C@@H]2CN3CCC2CC3)c1-c1nc2ccccc2[nH]1
AC50 [10]: inconclusive: 26.4 µM [cytotoxic]
AC50 [12]: inconclusive: 13.2 µM [cytotoxic]
IC50 [11]: active: 8.33 µM

CC(=O)OCC1=C(C(=O)O)N2C(=O)[C@@H](N)[C@@H]2SC1
AC50 [1]: inconclusive: 0.372 µM [cytotoxic]
AC50 [2]: inconclusive: 3.32 µM [cytotoxic]

CN(C)[C@@H]1C(=O)C(C(N)=O)=C(O)[C@@]2(O)C(=O)C3=C(O)c4c(O)cccc4[C@@](C)(O)[C@H]3[C@H](O)[C@@H]12
inhibition [6]: inconclusive: 20.2%
aggregation (% of control) [7]: inconclusive: 102%
protection [8]: inconclusive: 46%
SMN2/SMN1 luciferase ratio [9]: inconclusive: 1.06
outcome [10]: inactive
outcome [2]: inactive
AC50 [4]: inconclusive: 37.2 µM
outcome [5]: inactive

O=C1C=CC[C@@H]2[C@H]3CCCN4CCC[C@@H](CN12)[C@@H]34
AC50 [1]: inconclusive: 11.8 µM [cytotoxic]
AC50 [2]: inconclusive: 20.9 µM [cytotoxic]
outcome [3]: inactive
outcome [11]: inactive

C#C[C@]1(O)C=C[C@H]2[C@@H]3CCC4=CC(=O)CC[C@@H]4[C@H]3CC[C@@]21CC
outcome [1]: inactive
outcome [3]: inactive
outcome [4]: inactive
outcome [5]: inactive
IC50 [11]: inconclusive: 0.00166 µM

C/C=C(\C)C(=O)N[C@@H](c1ccccc1)[C@@H](O)C(=O)O[C@H]1C[C@@]2(O)[C@@H](OC(=O)c3ccccc3)[C@@H]3[C@]4(OC(C)=O)CO[C@@H]4C[C@H](O)[C@@]3(C)C(=O)[C@H](OC(C)=O)C(=C1C)C2(C)C
outcome [1]: inactive
outcome [2]: inactive
AC50 [3]: inconclusive: 0.0263 µM [cytotoxic]
outcome [12]: inactive
AC50 [5]: inconclusive: 0.0209 µM [cytotoxic]
IC50 [11]: inconclusive: 0.0332 µM [cytotoxic]

O=P1(NCCCl)OCCCN1CCCl (stereo unspecified)
outcome [10]: inactive
AC50 [2]: inconclusive: 18.7 µM [cytotoxic]
outcome [4]: inactive
outcome [5]: inactive

CCCN1CCO[C@@H]2c3cc(O)ccc3OC[C@H]21
outcome [10]: inactive
AC50 [3]: inconclusive: 2.63 µM [cytotoxic]
outcome [4]: inactive
outcome [12]: inactive
outcome [5]: inactive
IC50 [11]: inconclusive: 16.6 µM [cytotoxic]

CCOP(=O)(OCC)C(C)NC(=O)N(CCCl)N=O (stereo unspecified)
AC50 [2]: inconclusive: 0.0332 µM
outcome [3]: inactive
outcome [4]: inactive
outcome [12]: inactive
outcome [11]: inactive

COc1ccc(C(=O)N2CCCC2=O)cc1
inhibition [6]: inconclusive: 1.53%
aggregation (% of control) [7]: inconclusive: 93.3%
SMN2/SMN1 luciferase ratio [9]: inconclusive: 0.97
outcome [1]: inactive
outcome [2]: inactive
AC50 [3]: inconclusive: 0.00186 µM
outcome [5]: inactive

COc1ccc2c(c1)CN(C)CC2c1ccc(Cl)c(Cl)c1 (stereo unspecified)
AC50 [1]: inconclusive: 20.9 µM [cytotoxic]
AC50 [2]: inconclusive: 33.2 µM [cytotoxic]
AC50 [12]: inconclusive: 37.2 µM [cytotoxic]

c1ccc(CCCN2CCN(CCOC(c3ccccc3)c3ccccc3)CC2)cc1
AC50 [10]: inconclusive: 23.5 µM [cytotoxic]
AC50 [12]: inconclusive: 26.4 µM [cytotoxic]

C[C@]12CC[C@H]3[C@@H](CC[C@@]45O[C@@H]4C(O)=C(C#N)C[C@]35C)[C@@H]1CC[C@@H]2O
AC50 [10]: inconclusive: 23.5 µM [cytotoxic]
AC50 [2]: inconclusive: 37.2 µM [cytotoxic]
AC50 [3]: active: 20.9 µM
AC50 [5]: inconclusive: 26.3 µM [cytotoxic]

COCC1(CO)C(=O)C2CCN1CC2 (stereo unspecified)
AC50 [10]: active: 20.9 µM
AC50 [12]: inconclusive: 37.2 µM [cytotoxic]
AC50 [5]: active: 10.5 µM

CN1C(=O)CCS(=O)(=O)C1c1ccc(Cl)cc1 (stereo unspecified)
fluorescence slope change [13]: inactive: 29.1%
inhibition [6]: inconclusive: 9.39%
aggregation (% of control) [7]: inconclusive: 121%
SMN2/SMN1 luciferase ratio [9]: inconclusive: 1.04
outcome [1]: inactive
AC50 [4]: inconclusive: 0.00525 µM [cytotoxic]
outcome [12]: inactive

CN[C@@H]1Cc2cccc3[nH]c(=O)n(c23)C1
AC50 [2]: inconclusive: 0.935 µM [cytotoxic]
outcome [4]: inactive
outcome [5]: inactive

O=C(O)C1=CCCN(CCOC(c2ccc(C(F)(F)F)cc2)c2ccc(C(F)(F)F)cc2)C1
AC50 [3]: inconclusive: 11.8 µM [cytotoxic]
AC50 [4]: inconclusive: 23.5 µM [cytotoxic]

c1cc2c(cc1[C@H]1OC[C@H]3[C@@H]1CO[C@@H]3c1ccc3c(c1)OCO3)OCO2
AC50 [10]: inconclusive: 8.33 µM [cytotoxic]
AC50 [2]: inconclusive: 0.00235 µM
outcome [12]: inactive

C/C(=C\c1csc(C)n1)[C@@H]1C[C@@H]2O[C@@H]2CCC[C@H](C)[C@H](O)[C@@H](C)C(=O)C(C)(C)[C@@H](O)CC(=O)O1
AC50 [1]: inconclusive: 11.8 µM
AC50 [2]: inconclusive: 0.00118 µM [cytotoxic]
outcome [3]: inactive
outcome [12]: inactive
AC50 [5]: inconclusive: 0.0105 µM [cytotoxic]
IC50 [11]: inconclusive: 0.0332 µM [cytotoxic]

CN(C)NC(=O)CCC(=O)O
outcome [3]: inactive
AC50 [4]: inconclusive: 20.9 µM
outcome [5]: inactive

C#CCN(C)[C@H](C)Cc1ccccc1
outcome [3]: inactive
outcome [4]: inactive
AC50 [12]: inconclusive: 0.00418 µM [cytotoxic]

CCCC(C)(COC(N)=O)COC(=O)NC(C)C (stereo unspecified)
fluorescence slope change [13]: active: 52.8%
inhibition [6]: inconclusive: -4.78%
aggregation (% of control) [7]: inconclusive: 115%
SMN2/SMN1 luciferase ratio [9]: inconclusive: 1.22
AC50 [1]: inconclusive: 0.00105 µM
AC50 [2]: inconclusive: 0.935 µM

C[C@@H]1CC[C@@]2(OC1)O[C@H]1C[C@H]3[C@@H]4CC=C5C[C@@H](O[C@@H]6O[C@H](CO)[C@@H](O[C@@H]7O[C@@H](C)[C@H](O)[C@@H](O)[C@H]7O)[C@H](O)[C@H]6O[C@@H]6O[C@@H](C)[C@H](O)[C@@H](O)[C@H]6O)CC[C@]5(C)[C@H]4CC[C@]3(C)[C@H]1[C@@H]2C
AC50 [10]: inconclusive: 5.26 µM [cytotoxic]
AC50 [2]: active: 0.833 µM
AC50 [4]: active: 0.468 µM
AC50 [12]: active: 5.26 µM
IC50 [11]: active: 3.72 µM

C/C(=C\c1csc(C)n1)[C@@H]1C[C@@H]2O[C@]2(C)CCC[C@H](C)[C@H](O)[C@@H](C)C(=O)C(C)(C)[C@@H](O)CC(=O)O1
outcome [10]: inactive
outcome [3]: inactive
outcome [12]: inactive
AC50 [5]: inconclusive: 0.00934 µM [cytotoxic]
IC50 [11]: inconclusive: 0.0186 µM [cytotoxic]

CN1CC(CNC(=O)OCc2ccccc2)CC2c3cccc4c3c(cn4C)CC21 (stereo unspecified)
active call at 10 uM (0/1) [14]: inconclusive: 1
inhibition [6]: inconclusive: 33.9%
aggregation (% of control) [7]: inconclusive: 80.6%
protection [8]: inconclusive: -1%
SMN2/SMN1 luciferase ratio [9]: inconclusive: 1.09
